In PMC8800533:
No constants are given. Whether binding was seen depends on the method and setting. In cells and extracts the contact can be indirect. Binding calls can cover weak binding; strength is not graded here.

How the values were obtained:
[1] = biological target: endogenous zebrafish Bms1l^sq163 mutant protein (zebrafish (endogenous in embryos)); assay: co-IP; endogenous proteins extracted from zebrafish embryos (3dpf WT; Bms1l^163 sample); Bms1l precipitated, Ttf1 and Rcl1 detected by blot
[2] = biological target: endogenous zebrafish Bms1l (zebrafish (endogenous in embryos)); assay: as above

B1: endogenous zebrafish Rcl1 (protein, UniProt A0A8M1N1Q3 1-367)
chain: MEFEGCSGFRQRLVLSTLSGKPVKIRNIRSKDDNPGLRDFEASFIRMLDKLTNGTRIEINQTGTVLFYQPGLLYGGSVEHECNVQRSVGYYLEALLMLAPFMKTPIKAVLKGITNHPTDPSVDLLKVTAVPLMKRFGINGDGLEIKVVKRGMAPGGGGEVHFSCPVSRSMKPVQLTEAGKIKRIRGTAFSVRVSPQMANRIVDSARSILNKFIPDIYIYTDHMKGPNSGKSPGFGLVLVAETLNGVFLGAEVVSTPQGQGEMQLPEDLGRNCAKLLLEEIYRGGCVDSTNQSLALLYMTLGQQEVSKTLLGPLSPYTMDFLRHIRDFFQIMFKIETQKPSEDECKGGEKVLMTCVGAGYNNISKSIK
[1]
  binding: binds
[2]
  binding: binds
